No constants are given. Whether binding was seen depends on the method and setting. Binding seen in cells or lysates may run through a third protein. Some results given as binding are weak or reduced against the parent protein; the word gives no strength. Where a sequence is shown, tags or fusion partners need not be part of it.

By UniProt entry, the sequences of proteins in these tests, tags left out.
UniProt P37238: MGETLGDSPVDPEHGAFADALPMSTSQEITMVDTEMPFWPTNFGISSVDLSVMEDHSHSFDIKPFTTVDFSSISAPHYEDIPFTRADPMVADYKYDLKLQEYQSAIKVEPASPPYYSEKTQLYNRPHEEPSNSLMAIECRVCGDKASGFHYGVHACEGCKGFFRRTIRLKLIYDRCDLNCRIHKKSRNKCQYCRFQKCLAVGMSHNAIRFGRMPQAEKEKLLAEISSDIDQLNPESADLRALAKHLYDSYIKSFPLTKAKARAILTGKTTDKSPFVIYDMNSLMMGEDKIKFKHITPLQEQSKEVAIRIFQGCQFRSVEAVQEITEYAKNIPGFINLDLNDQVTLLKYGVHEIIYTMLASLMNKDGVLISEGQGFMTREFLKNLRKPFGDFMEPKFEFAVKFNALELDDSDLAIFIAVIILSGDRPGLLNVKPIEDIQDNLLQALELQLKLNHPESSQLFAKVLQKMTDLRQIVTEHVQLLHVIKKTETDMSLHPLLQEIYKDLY

The record followed here is patent publication US20080090257A1.

Assay [1] has as its target endogenous PPARγ in differentiating OP9 cells (UniProt P37238). Kind of assay: co-IP with anti-GFP monoclonal antibody, detection with anti-PPARγ antibody (FIG. 7C).
For assay [2] the target is unchanged. Kind of assay: co-IP with anti-GFP monoclonal antibody from OP9 cells transduced with Ad-GFP-CCPG, detection with anti-PPARγ antibody.

B1: GFP-tagged CCPG (GFP-CCPG) (protein, not shown: large carriers)
chain: MGVRGLQGFVGSTCPHICTIVNIHELAERHRNKYPGCTPTIVVDAMCCLRYWYTAESWVCGGQWREYYCALRNFVAAFTSAGIKLIFFFDGMVEPGKRDEWVKRRLKNNREISKIFHYIKSKRDQPGRNMFFIPSGLAIFTRFALKTLGQETFCSLQEADYEVASYGLQHNCLGILGEDTDYLIYDTCPYFSIGDLCLESLQTIMLCREKLCESLGLRVADLPLLACLLGNDITPESMFESFRYKCLSSYASVKENAGKKGNIILAVSDYISKVLHLYQGEKKIEEMLPLGPNKALFYKGVTSYLLPGQKSPWLVQKPKGMITDKQQMVSLNPESKQEVPMCIDPEFKQEVPVCTNPESMQEVPMCMDPEPNQEASMCTDPESKQEVPMCTDSESKPEVSQYTNPESKQKLPSGIDTEFNLEALMCTHPEFKQEDVMDMEPEIKQVTMVSESEILKVARMHHVHSESYLVYNILSSGEIECSNTLEDELDQALPSQAFIYRPVRQRVYALLLGDWKDGASTGPVVKEWFVYPGNSLKHPDLVRPLQMTVQGGTPSLEVLWLSQEPAVQAQRLDTLLACFNLSSSREELQAVESPLRALCCLLIYLFVQVDTLSLEDLHAFIAQALCLQGKSTSQLMHLQLDYINSRAVQLGSLLVRGLTTLVLVNSACGFPWTTSEFMPWNVFDGKLFHQKYLQSEKGYAVEVLLEQNRSWLTKFHNLKAVVCKACSKENRRIVGRTHWDSPYTGRQGRQGYSSYRTDSTHGHSGQSWRNQGSGGRQHERNHWRRY
Consider B1, for which the binding entry in assay [1] and in assay [2] was “binds” in each case.
